Results: the supplement of paper PMC7661543
Differences between knockout arms are mostly noise.

Tested on: MDA-MB-231
Experiment: relative cell number vs DMSO control (72 h) (% of DMSO); higher = less growth inhibition (more cells)
Description: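 QMAP-Seq: a pool of 5 breast cancer cell lines (ZR-75-1, SKBR3, HCC-38, MDA-MB-231, BT-20), each carrying 12 doxycycline-inducible Cas9 sgRNA perturbations (11 knockouts plus non-targeting sgNT), was treated with compounds for 72 h at four 10-fold doses (10 nM-10 uM or 1 nM-1 uM range). Barcodes were amplified and sequenced, and cell number was interpolated from 293T spike-in standard curves. The result is expressed as % of the median of DMSO wells. Two biological replicates.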

O=C(O)CC[C@H]1CC[C@@](c2cc(F)ccc2F)(S(=O)(=O)c2ccc(Cl)cc2)CC1 [MK0752]
Conditions | relative cell number
sgRNA knockout: sgATF3, 10 nM | 163
sgRNA knockout: sgATF3, 100 nM | 118
sgRNA knockout: sgATF3, 1000 nM | 122
sgRNA knockout: sgATF3, 10000 nM | 119
sgRNA knockout: sgATF4, 10 nM | 210
sgRNA knockout: sgATF4, 100 nM | 154
sgRNA knockout: sgATF4, 1000 nM | 135
sgRNA knockout: sgATF4, 10000 nM | 145
sgRNA knockout: sgATF6, 10 nM | 128
sgRNA knockout: sgATF6, 100 nM | 116
sgRNA knockout: sgATF6, 1000 nM | 105
sgRNA knockout: sgATF6, 10000 nM | 102
sgRNA knockout: sgATG7, 10 nM | 127
sgRNA knockout: sgATG7, 100 nM | 94.6
sgRNA knockout: sgATG7, 1000 nM | 104
sgRNA knockout: sgATG7, 10000 nM | 96.8
sgRNA knockout: sgERN1, 10 nM | 128
sgRNA knockout: sgERN1, 100 nM | 102
sgRNA knockout: sgERN1, 1000 nM | 118
sgRNA knockout: sgERN1, 10000 nM | 93.4
sgRNA knockout: sgHSF1, 10 nM | 109
sgRNA knockout: sgHSF1, 100 nM | 115
sgRNA knockout: sgHSF1, 1000 nM | 101
sgRNA knockout: sgHSF1, 10000 nM | 104
sgRNA knockout: sgHSF2, 10 nM | 146
sgRNA knockout: sgHSF2, 100 nM | 109
sgRNA knockout: sgHSF2, 1000 nM | 107
sgRNA knockout: sgHSF2, 10000 nM | 128
sgRNA knockout: sgKEAP1, 10 nM | 115
sgRNA knockout: sgKEAP1, 100 nM | 94.3
sgRNA knockout: sgKEAP1, 1000 nM | 109
sgRNA knockout: sgKEAP1, 10000 nM | 118
sgRNA knockout: sgNFE2L2, 10 nM | 110
sgRNA knockout: sgNFE2L2, 100 nM | 118
sgRNA knockout: sgNFE2L2, 1000 nM | 117
sgRNA knockout: sgNFE2L2, 10000 nM | 112
sgRNA knockout: sgSLC35F2, 10 nM | 143
sgRNA knockout: sgSLC35F2, 100 nM | 130
sgRNA knockout: sgSLC35F2, 1000 nM | 94.3
sgRNA knockout: sgSLC35F2, 10000 nM | 137
sgRNA knockout: sgXBP1, 10 nM | 138
sgRNA knockout: sgXBP1, 100 nM | 132
sgRNA knockout: sgXBP1, 1000 nM | 124
sgRNA knockout: sgXBP1, 10000 nM | 120

COc1cc(CCc2cc(NC(=O)c3ccc(N4CC(C)NC(C)C4)cc3)n[nH]2)cc(OC)c1 (configuration not stated) [AZD4547]
Conditions | relative cell number
sgRNA knockout: sgATF3, 10 nM | 89.7
sgRNA knockout: sgATF3, 100 nM | 92.6
sgRNA knockout: sgATF3, 1000 nM | 81.1
sgRNA knockout: sgATF3, 10000 nM | 30.4
sgRNA knockout: sgATF4, 10 nM | 79
sgRNA knockout: sgATF4, 100 nM | 71
sgRNA knockout: sgATF4, 1000 nM | 85.7
sgRNA knockout: sgATF4, 10000 nM | 27.3
sgRNA knockout: sgATF6, 10 nM | 57.1
sgRNA knockout: sgATF6, 100 nM | 93.2
sgRNA knockout: sgATF6, 1000 nM | 80.3
sgRNA knockout: sgATF6, 10000 nM | 26.1
sgRNA knockout: sgATG7, 10 nM | 86.9
sgRNA knockout: sgATG7, 100 nM | 84.8
sgRNA knockout: sgATG7, 1000 nM | 95.2
sgRNA knockout: sgATG7, 10000 nM | 39.7
sgRNA knockout: sgERN1, 10 nM | 92.9
sgRNA knockout: sgERN1, 100 nM | 92.7
sgRNA knockout: sgERN1, 1000 nM | 92.5
sgRNA knockout: sgERN1, 10000 nM | 31.7
sgRNA knockout: sgHSF1, 10 nM | 76.6
sgRNA knockout: sgHSF1, 100 nM | 93.5
sgRNA knockout: sgHSF1, 1000 nM | 90.1
sgRNA knockout: sgHSF1, 10000 nM | 37.3
sgRNA knockout: sgHSF2, 10 nM | 71.3
sgRNA knockout: sgHSF2, 100 nM | 83.9
sgRNA knockout: sgHSF2, 1000 nM | 89.5
sgRNA knockout: sgHSF2, 10000 nM | 26.4
sgRNA knockout: sgKEAP1, 10 nM | 80.4
sgRNA knockout: sgKEAP1, 100 nM | 106
sgRNA knockout: sgKEAP1, 1000 nM | 85.8
sgRNA knockout: sgKEAP1, 10000 nM | 33.5
sgRNA knockout: sgNFE2L2, 10 nM | 76.4
sgRNA knockout: sgNFE2L2, 100 nM | 94.2
sgRNA knockout: sgNFE2L2, 1000 nM | 78.69
sgRNA knockout: sgNFE2L2, 10000 nM | 31.5
sgRNA knockout: sgSLC35F2, 10 nM | 76.3
sgRNA knockout: sgSLC35F2, 100 nM | 81.5
sgRNA knockout: sgSLC35F2, 1000 nM | 108
sgRNA knockout: sgSLC35F2, 10000 nM | 29.3
sgRNA knockout: sgXBP1, 10 nM | 74.9
sgRNA knockout: sgXBP1, 100 nM | 102
sgRNA knockout: sgXBP1, 1000 nM | 79.1
sgRNA knockout: sgXBP1, 10000 nM | 31.2

CC(C)n1c(/C=C/C(O)CC(O)CC(=O)O)c(-c2ccc(F)cc2)c2ccccc21 (configuration not stated) [Fluvastatin]
Conditions | relative cell number
sgRNA knockout: sgATF3, 10 nM | 84.3
sgRNA knockout: sgATF3, 100 nM | 94.9
sgRNA knockout: sgATF3, 1000 nM | 32.3
sgRNA knockout: sgATF3, 10000 nM | 15.7
sgRNA knockout: sgATF4, 10 nM | 85.5
sgRNA knockout: sgATF4, 100 nM | 114
sgRNA knockout: sgATF4, 1000 nM | 35
sgRNA knockout: sgATF4, 10000 nM | 27.2
sgRNA knockout: sgATF6, 10 nM | 67.9
sgRNA knockout: sgATF6, 100 nM | 87.4
sgRNA knockout: sgATF6, 1000 nM | 35.7
sgRNA knockout: sgATF6, 10000 nM | 17.1
sgRNA knockout: sgATG7, 10 nM | 98.6
sgRNA knockout: sgATG7, 100 nM | 98.9
sgRNA knockout: sgATG7, 1000 nM | 30.8
sgRNA knockout: sgATG7, 10000 nM | 13.8
sgRNA knockout: sgERN1, 10 nM | 84
sgRNA knockout: sgERN1, 100 nM | 95.8
sgRNA knockout: sgERN1, 1000 nM | 39.3
sgRNA knockout: sgERN1, 10000 nM | 13
sgRNA knockout: sgHSF1, 10 nM | 60
sgRNA knockout: sgHSF1, 100 nM | 67.6
sgRNA knockout: sgHSF1, 1000 nM | 33.9
sgRNA knockout: sgHSF1, 10000 nM | 18.9
sgRNA knockout: sgHSF2, 10 nM | 97.6
sgRNA knockout: sgHSF2, 100 nM | 105
sgRNA knockout: sgHSF2, 1000 nM | 32.4
sgRNA knockout: sgHSF2, 10000 nM | 17.1
sgRNA knockout: sgKEAP1, 10 nM | 100
sgRNA knockout: sgKEAP1, 100 nM | 94.5
sgRNA knockout: sgKEAP1, 1000 nM | 46.5
sgRNA knockout: sgKEAP1, 10000 nM | 20.6
sgRNA knockout: sgNFE2L2, 10 nM | 82.3
sgRNA knockout: sgNFE2L2, 100 nM | 106
sgRNA knockout: sgNFE2L2, 1000 nM | 33.1
sgRNA knockout: sgNFE2L2, 10000 nM | 17.9
sgRNA knockout: sgSLC35F2, 10 nM | 87.2
sgRNA knockout: sgSLC35F2, 100 nM | 93.9
sgRNA knockout: sgSLC35F2, 1000 nM | 32.8
sgRNA knockout: sgSLC35F2, 10000 nM | 16.8
sgRNA knockout: sgXBP1, 10 nM | 116
sgRNA knockout: sgXBP1, 100 nM | 82.6
sgRNA knockout: sgXBP1, 1000 nM | 26.3
sgRNA knockout: sgXBP1, 10000 nM | 21.6
